Data as given in PubChem BioAssay AID1259425 (University of Nebraska Medical Center, 2018)
The whole screen tested about 14,000 reagents; below is an unselected part. Further read-outs or replicates are left out here. No sequences are given here. Not given: the time to read-out.

Assay: 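Find knockdowns that reproduce the gene expression pattern seen when KSR1 is lost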 (primary screen)
System: HCT116 human colon cancer cells
Knock-down reagent: siRNA pool against human genes, 50 nM siRNA
Detection: 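mRNA of six signature genes measured together by branched-DNA assay after 50 nM siRNA pool, blank removed, divided by geometric mean of two housekeeping genes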
Reading the numbers: BNIP3L mRNA: higher = more BNIP3L transcript after knockdown

gene	BNIP3L mRNA, set 1
KSR2	0.0588
FUBP1	0.166
TSC22D1	0.127
ARHGAP8	0.103
TDRKH	0.0963
TFAP2B	0.0589
SIAH1	0.0518
MBNL2	0.0884
FAM193B	0.1
PPM1D	0.0543
IRAG2	0.0981
UQCC2	0.0998
RPAIN	0.209
LPAR1	0.256
ARMC2	0.307
NPSR1-AS1	0.114
CNIH4	0.136
ZNF136	0.0638
PRPSAP2	0.118
HLF	0.143
ADTRP	0.0988

8 entries already listed, sorted by “BNIP3L mRNA, set 1”, high to low.
gene	BNIP3L mRNA, set 1
LPAR1	0.256
RPAIN	0.209
FAM193B	0.1
UQCC2	0.0998
IRAG2	0.0981
MBNL2	0.0884
PPM1D	0.0543
SIAH1	0.0518

The list goes on:
gene	BNIP3L mRNA, set 1
PCDHA5	0.0769
ITCH	0.0688
TMED2	0.117
RAN	0.0629
COQ8B	0.184
GPR107	0.166
GLRA1	0.0545
METRN	0.142
RRAGD	0.0714
RAD52	0.0865
BORCS6	0.361
LAG3	0.265
LARP1B	0.0571
MPZ	0.11
MAPK1	0.0559
POLR2M	0.126
RHPN1-AS1	0.104
RNF167	0.0755
PIP5K1A	0.156
CASP9	0.0624
TRPC4AP	0.0726
HEXIM1	0.0915
FGF18	0.246
ENOPH1	0.0997
AMMECR1L	0.156
KTN1	0.134
MIXL1	0.118
THSD7B	0.0604
WNT5B	0.085
